Data published in article PMC3126725.

Molecular target: T1, His-CalA (Nostoc sp. PCC 7120) (UniProt A0ACD7RPR5)
T1 sequence (looked up, limits assumed): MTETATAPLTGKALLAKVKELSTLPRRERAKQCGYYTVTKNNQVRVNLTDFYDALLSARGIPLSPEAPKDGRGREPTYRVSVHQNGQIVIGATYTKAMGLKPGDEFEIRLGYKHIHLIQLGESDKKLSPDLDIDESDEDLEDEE
Assay: EMSA
Conditions: EMSA: 100 ng DNA per 20 ul, 0-45 ng His-CalA, room temperature 1 h, 8% native PAGE, recombinant protein, protein details: His, probe letters rebuilt from the primers and the genome

[1] = 0-45 ng protein, 100 ng DNA per 20 ul, label: none (thiazole orange stain)

Sequence	binding result [1]	binding result
CGGTCTTCATCCAACCAATCTCTGAAGTCATCATAAGTTTGGATTTGTTCGTAGCGTTCTAATGAACAACCTAACCACACTGGTTCTAACCAATTGGTGCGGAAATATTCTAGAATCGCCCAAGCGCGAGTAATGTCTGTTAAAGTGGGGGCGCACATCACGCCACCAGGTACCATGTAGCTAGAATGAGGCCATTGTCCGCCCAACAGTGCATAAATTTCTACGGGTTTAGCAGAAATTGTTATGCCTAGTTCGTAAGATTTGCCAGTGAAGGCGGCAAAGCGTCTAACAGCTTCCTCATAATGGCG (double strand) [C1 (hupL fragment)]	no binding	–
TTACGCATCTCATCACGGGCCATACCGATTTACGCAGGCTTCGAGTCCTTTAGGCGGAATTCCCCTTTTGTCTGAAACTAGAGGCTAGGGATTAATGATGCTAGGGACTAGGAAAATTTTTCCCAATACCTAATACTTAATCCTCAATCCCCTAAATTGAGTGAATTAATTTTTTTACTATAAAACACTCTATTTCTAAAATTCTAGGGGGAAATTGCCAATATTAATGTCAGCTTTAAACACCTTACATTTTGATAAGGTGTTCTGTATCATGACCTGACACAACGCAGTTCTTCTATATTGAATTGATAACATCTTATATATTTAAGACCTAACTTTGTTATCAAAATATAACTATTTGCTTTGAACTTAAAAATAAATTTATTTACTATTTACTTTTTTTGGCTAGTGCTGATATTTCTTAACGTACAAGACTTCACCTTTAAAATCTTAGCCCATTTATATAGAAAAGTTGAGATTACAACTCTCTCAAAATGATTTAAAACAGCTATCTAAAATCAGTGTGCTTAGTTTGTTATTCAAGCTTTTGTGAAAAATTATGTTCTTGATACAACCTTGTAAGCAATCTTAAGTAGATTTAAATTATTAGCAATGATTAATTTTTATTTAACAAAAGATAATTCACTAGAAAATCCACTAATATTAATGAATAAATATTGATAAATACGTGAGACTCTACAAGCATTATTTACTAATTCACGTATGGCAAACAATACAAAAACACCTAGCCC (double strand) [PhupS/Npun_R0367, EMSA]	–	binds
TTCTAAAATTCTAGGGGGAAATTGCCAATATTAATGTCAGCTTTAAACACCTTACATTTTGATAAGGTGTTCTGTATCATGACCTGACACAACGCAGTTCTTCTATATTGAATTGATAACATCTTATATATTTAAGACCTAACTTTGTTATCAAAATATAACTATTTGCTTTGAACTTAAAAATAAATTTATTTACTATTTACTTTTTTTGGCTAGTGCTGATATTTCTTAACGTACAAGACTTCACCTTTAAAATCTTAGCCCATTTATATAGAAAAGTTGAGATTACAACTCTCTCAAAATGATTTAAAACAGCTATCTAAAATCAGTGTGCTTAGTTTGTTATTCAAGCTTTTGTGAAAAATTATGTTCTTGATACAACCTTGTAAGCAATCTTAAGTAGATTTAAATTATTAGCAATGATTAATTTTTATTTAACAAAAGATAATTCACTAGAAAATCCACTAATATTAATGAATAAATATTGATAAATACGTGAGACTCTACAAGCATTATTTACTAATTCACGTATGGCAAACAATACAAAAACACCTAGCCC (double strand) [PhupS]	binds	–

The exact form of at least one protein or probe is not confirmed. A negative result means that nothing was seen under these conditions. Where a protein sequence is shown, tags need not be part of it.
